“And” between values parts separate entries of the source, which are not always exact repeats. Equal values may be shown once. The inconclusive results got no clear call from the source; some entries with a clear call stand among them for comparison. For some of these results: Potencies of inconclusive entries are doubtful fits and often do not repeat. The source holds several records for some structures; these can differ, active in one and inactive in another. The source made the active and inactive calls. Unless noted, calls come from the whole dose curve; as a rule, active = well fitted curve in the direction sought with a large enough effect in the repeat runs; inconclusive = weak or mixed curves; inactive = no such curve, though single readings can be large; an effect the other way counts as inactive or inconclusive.
What was measured:
[1] = molecular target: Retinoic acid receptor RXR-alpha (Homo sapiens) (UniProt P19793); test: qHTS assay to identify small molecule agonists of the RXR signaling pathway (AID 1159527; calls by dose curve; note: nearly all actives have a fitted effect of over 35% in size; note: potency is the fitted concentration of half-maximal effect; for activation: % is set by controls: 0 for no effect and ±100 for the full control effect); conditions: HEK293T RXRa-UAS-bla, beta-lactamase ratio, 16 h; activation: at 76.8 µM (top of the series) unless noted
Procedure, shortened: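 qHTS of the Tox21 10K library in GeneBLAzer RXR-alpha HEK 293T cells carrying a beta-lactamase reporter […]; 16 hr treatment, 9-cis retinoic acid as agonist control, FRET read-out.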

By UniProt entry, the sequences of proteins in these tests, tags left out. Where a name states a change or a piece, a line headed by the entry shows the natural chain unless it says otherwise.
UniProt P19793: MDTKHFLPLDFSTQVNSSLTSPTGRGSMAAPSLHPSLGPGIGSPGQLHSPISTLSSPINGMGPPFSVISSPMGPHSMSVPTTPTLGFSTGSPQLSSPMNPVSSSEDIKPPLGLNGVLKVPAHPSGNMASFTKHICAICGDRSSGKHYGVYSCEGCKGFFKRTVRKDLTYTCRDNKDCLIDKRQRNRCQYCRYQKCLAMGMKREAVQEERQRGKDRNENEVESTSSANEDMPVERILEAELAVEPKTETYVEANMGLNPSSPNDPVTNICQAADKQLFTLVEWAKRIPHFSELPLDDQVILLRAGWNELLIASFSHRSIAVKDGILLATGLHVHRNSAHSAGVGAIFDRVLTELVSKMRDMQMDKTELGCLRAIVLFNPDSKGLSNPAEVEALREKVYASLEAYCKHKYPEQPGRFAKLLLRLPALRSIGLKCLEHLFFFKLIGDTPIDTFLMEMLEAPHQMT

[2] = qHTS assay to identify small molecule agonists of the RXR signaling pathway - cell viability counter screen (AID 1159529); note: nearly all actives have a fitted effect of over 50% in size; note: potency is the fitted concentration of half-maximal effect
Procedure, shortened: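 Cell viability is measured by CellTiter-Glo luminescence, 30 min at room temperature, in wells already read for beta-lactamase. Engineered HEK 293T cells (RXR-alpha-UAS-bla) are dosed 16 hr at 37 C. Tetraoctyl ammonium bromide serves as positive control.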

[3] = qHTS assay to identify small molecule agonists of the retinoic acid receptor (RAR) signaling pathway (AID 1159553); conditions: C3RL4 RARE luciferase reporter, agonist, 6 h; activation: at 73.3 µM (top of the series) unless noted; note: potency is the fitted concentration of half-maximal effect; for activation: % is set by controls: 0 for no effect and ±100 for the full control effect
Procedure, shortened: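 Reporter readout comes from luciferase under RARE control in C3RL4 cells; compound exposure lasts 6 hr at 37 C in 5% CO2, and luminescence is recorded following a 30 min room-temperature incubation with reagent.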

[4] = qHTS assay to identify small molecule antagonists of the estrogen related receptor (ERR) signaling pathway - cell viability counter screen (AID 1224818); note: potency is the fitted concentration of half-maximal effect;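 note: viability measured after 17.5 h of compound exposure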
Procedure, shortened: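 After a 6 h pre-incubation, ERR cells were dosed by pin tool with compounds, positive/negative controls or DMSO alone. Following 17.5 h at 37 C and 30 min with CellTiter-Fluor, fluorescence was recorded.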

[5] = qHTS assay to identify small molecule antagonists of the estrogen related receptor signaling pathway with the pleiotropic PPARgamma coactivator (PGC) cell viability counter screen (AID 1224822; note: potency is the fitted concentration of half-maximal effect;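 note: viability read after 17.5 h compound exposure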)
Procedure, shortened: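 PGC/ERR cells were plated at 2,000 per well and allowed 6 h to settle before compound addition. Following 17.5 h at 37 C, CellTiter-Fluor reagent was added and fluorescence was read 30 min later.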

[6] = qHTS assay to identify small molecule antagonists of the retinoic acid receptor (RAR) signaling pathway (AID 1159552; note: nearly all actives have a fitted effect of over 50% in size; note: potency is the fitted concentration of half-maximal effect)
Procedure, shortened: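 Quantitative HTS in C3RL4 RARE-luciferase reporter cells. Compounds were added with 1 uM (final) retinol; luminescence was read after 6 hr.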

[7] = tested on: estrogen-related receptor alpha (ERRalpha) with PGC-1alpha coactivator, human; test: qHTS assay to identify small molecule antagonists of the estrogen related receptor signaling pathway with the pleiotropic PPARgamma coactivator (PGC) (AID 1224821; calls by dose curve; note: potency is the fitted concentration of half-maximal effect; nearly all actives have a fitted effect of over 50% in size)
Procedure, shortened: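 Cells engineered for PGC/ERR signalling (line from NTP) were plated 6 h at 37 C/5% CO2, then exposed to DMSO-dissolved compound for 18 h at 37 C. Luciferase activity was read by One-Glo luminescence after 30 min at room temperature.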

[8] = qHTS assay to identify small molecule antagonists of the retinoid acid receptor (RAR) signaling pathway - cell viability counter screen (AID 1159551); note: % is set by controls: 0 for no effect and ±100 for the full control effect; nearly all actives have a fitted effect of over 35% in size
Procedure, shortened: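 Retinol-stimulated (1 uM final) C3RL4 cells, compound 6 h, 37 C; readout CellTiter-Glo luminescence (ATP) after 30 min RT incubation.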

[9] = qHTS assay to identify small molecule agonists of the estrogen related receptor (ERR) signaling pathway (AID 1224820); note: % is set by controls: 0 for no effect and ±100 for the full control effect
Procedure, shortened: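 ERR reporter cells (NTP line) plated 2,000/well, incubated 6 h at 37 C/5% CO2, then pinned with compounds in DMSO and held 18 h at 37 C. One-Glo added; luminescence read after 30 min at room temperature.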

## Cc1ccc2ncccc2c1
[1]
  Potency: active: 13.8 µM
[2]
  Potency: inconclusive: 17.4 µM [cytotoxic, partial curve, poor fit]

## O=C[O][Al]([O]C=O)[O]C=O
[1]
  Potency: inactive
[2]
  Potency: inactive

## CN1C(=O)c2ccc([N+](=O)[O-])cc2C1=O
[1]
  Potency: inactive
[2]
  Potency: inactive

## CN(C)CCCNCCCN
[3]
  Potency: inactive

## CN(C)CCC(c1ccc(Cl)cc1)c1ccccn1 (stereo not drawn)
[4]
  Potency: inactive
[5]
  Potency: inactive

## CC1=C(C)C(=O)C(CCCCC#CCCCC#CCO)=C(C)C1=O
[4]
  Potency: inconclusive: 33.5 µM [cytotoxic, partial curve, poor fit]
[5]
  Potency: inconclusive: 33.5 µM [cytotoxic, partial curve, poor fit]

## CC[C@]12CCCN3CCc4c(n(c5ccccc45)C(=O)C1)[C@@H]32
[1]
  Potency: inactive
[2]
  Potency: inconclusive: 8.49 µM [cytotoxic, partial curve, poor fit]
[6]
  Potency: inconclusive: 21.1 µM [inhibitor, partial curve]
[3]
  Potency: inactive

## CO[Si](OC)(c1ccccc1)c1ccccc1
[1]
  Potency: inconclusive: 54.9 µM [inhibitor]
[2]
  Potency: inconclusive: 61.6 µM [cytotoxic, single point]
[6]
  Potency: inconclusive: 68.6 µM [inhibitor, single point]

## C[C@]12C(=O)OC(=O)[C@H]1[C@H]1C=C[C@@H]2C1
[1]
  Potency: inconclusive: 55.4 µM [single point]
[2]
  Potency: inconclusive: 55.4 µM [cytotoxic, single point]
[3]
  Potency: inconclusive: 77.6 µM [activator, single point]

## CCNC(=O)N1CCN(CCCC(c2ccc(F)cc2)c2ccc(F)cc2)CC1
[1]
  Potency: inconclusive: 4.77 µM [rising, full curve, poor fit]
[2]
  Potency: inconclusive: 21.3 µM [cytotoxic, partial curve, poor fit]
[6]
  Potency: inconclusive: 33.5 µM [inhibitor, single point]
[4]
  Potency: inconclusive: 25.6 µM [cytotoxic]
[7]
  Potency: inconclusive: 16.8 µM [inhibitor, single point]
[5]
  Potency: inconclusive: 26.6 µM [cytotoxic, partial curve, poor fit]

## CCCCCC/C(C=O)=C\c1ccccc1
[1]
  activation: inconclusive: -20.6% and inconclusive: -20%
[2]
  Potency: inconclusive: 55.6 µM [cytotoxic, single point]
[6]
  Potency: inactive
[3]
  Potency: inactive

## Clc1cc(Cl)c2c(c1)N=C1CCCCCN1C2
[1]
  activation: inconclusive: 2.95% [at 35.3 µM]
[2]
  Potency: inconclusive: 7.56 µM [cytotoxic, partial curve, poor fit]
[6]
  Potency: inactive
[3]
  activation: inconclusive: 11.1% [phenotype inactive]

## CCCNCC(O)COc1ccccc1C(=O)CCc1ccccc1 (stereo not drawn)
[1]
  Potency: inconclusive: 26.8 µM
[2]
  Potency: inconclusive: 19 µM [cytotoxic, partial curve]
[8]
  Potency: inactive
[5]
  Potency: inactive

## CC(C)(C)C(=O)OCOP(=O)(COCCn1cnc2c(N)ncnc21)OCOC(=O)C(C)(C)C
[1]
  Potency: inconclusive: 7.56 µM [rising, partial curve]
[2]
  Potency: inconclusive: 3.01 µM [cytotoxic, full curve]
[3]
  Potency: inconclusive: 5.96 µM [inhibitor, partial curve]

## CCOC(=O)C1=NN(c2ccccc2)C(=O)C1
[1]
  Potency: inactive
[2]
  Potency: inconclusive: 43.6 µM [cytotoxic, partial curve]
[6]
  Potency: inactive

## CCCOC(C(=O)OC1CCN(C)CC1)(c1ccccc1)c1ccccc1
[1]
  activation: inconclusive: -30.4% [at 35.3 µM]
[2]
  Potency: inconclusive: 0.268 µM [cytotoxic, full curve]
[6]
  Potency: inconclusive: 18.8 µM [inhibitor, partial curve, poor fit]

## CCCCCCCCCCCCOCCOS(=O)(=O)O
[1]
  Potency: inconclusive: 17.4 µM [rising, partial curve, poor fit]
[2]
  Potency: active: 19.5 µM
[3]
  Potency: inactive

## COc1cc2c(cc1N)oc1ccccc12
[1]
  Potency: inconclusive: 50 µM [rising, partial curve, poor fit]
[2]
  Potency: inconclusive: 63 µM [cytotoxic, single point]
[3]
  Potency: active: 12.5 µM

## O=S(=O)(O)c1cc(I)c(O)c2ncccc12
[1]
  Potency: inactive
[2]
  Potency: inactive
[3]
  Potency: inactive

## COc1ccc(C(=O)Nc2ccccc2)cc1[N+](=O)[O-]
[1]
  Potency: inconclusive: 17.5 µM
[2]
  Potency: inconclusive: 31.1 µM [cytotoxic, partial curve]
[3]
  Potency: active: 30.9 µM

## O=C(NCc1ncc(C(F)(F)F)cc1Cl)c1c(Cl)cccc1Cl
[1]
  Potency: inconclusive: 15.5 µM [rising, full curve]
[2]
  Potency: inconclusive: 34.7 µM [cytotoxic, partial curve]
[6]
  Potency: inconclusive: 17.2 µM [inhibitor, partial curve, poor fit]

## CC1=C(C)C(=O)C(C(CCCCCC(=O)O)c2ccccc2)=C(C)C1=O (stereo not drawn)
[1]
  Potency: inconclusive: 23.9 µM [rising, partial curve]
[2]
  Potency: inactive
[3]
  Potency: inactive

## CC[C@H](C)[C@@H](C(=O)O)n1sc2ccccc2c1=O
[1]
  Potency: inconclusive: 54.9 µM [rising, partial curve, poor fit]
[2]
  Potency: inconclusive: 24.5 µM [cytotoxic, partial curve]
[6]
  Potency: inconclusive: 68.6 µM [inhibitor, single point]

## CCC(CC)Nc1ccc(C)c(C)c1
[1]
  Potency: inconclusive: 54.9 µM [single point]
[2]
  Potency: inconclusive: 54.9 µM [cytotoxic, single point]
[6]
  Potency: inconclusive: 68.6 µM [inhibitor, single point]
[3]
  Potency: inconclusive: 0.969 µM [activator, full curve, poor fit]

## O=C(c1ccccc1)c1ccc(O)c(O)c1O
[1]
  Potency: inconclusive: 55.4 µM [partial curve, poor fit]
[2]
  Potency: inconclusive: 38.9 µM [cytotoxic, partial curve, poor fit]
[3]
  Potency: inconclusive: 69.1 µM [activator, partial curve, poor fit] and inconclusive: 68.6 µM [activator]

## CCCCCCCCOCCCN
[1]
  Potency: inactive
[2]
  Potency: inactive
[6]
  Potency: inactive
[3]
  Potency: inactive

## O=C(Cl)c1ccc(F)c(Cl)c1
[1]
  activation: inconclusive: -11.1%
[2]
  Potency: inconclusive: 0.275 µM [cytotoxic, full curve]
[6]
  Potency: inconclusive: 6.86 µM [inhibitor, single point]

## C=C[Si]1(C)O[Si](C)(C=C)O[Si](C)(C=C)O[Si](C)(C=C)O1 (stereo not drawn)
[1]
  activation: inconclusive: -32.7%
[2]
  Potency: inconclusive: 49 µM [cytotoxic, partial curve, poor fit]
[3]
  Potency: inconclusive: 77 µM [inhibitor, single point]

## CNCC[C@@H](Oc1ccccc1C)c1ccccc1
[1]
  Potency: inactive
[2]
  Potency: inconclusive: 8.49 µM [cytotoxic, partial curve, poor fit]
[6]
  Potency: inconclusive: 29.8 µM [inhibitor, partial curve]

## ICCc1ccccc1
[1]
  Potency: inconclusive: 48 µM
[2]
  Potency: inconclusive: 53.8 µM [cytotoxic, single point]
[6]
  Potency: inconclusive: 67.2 µM [inhibitor, single point]
[3]
  Potency: inconclusive: 67.2 µM [activator]

## C[C@H]1C[C@H]2[C@@H]3CCC4=CC(=O)C=C[C@]4(C)[C@@]3(Cl)[C@@H](O)C[C@]2(C)[C@@]1(O)C(=O)CO
[1]
  Potency: inconclusive: 21.3 µM [rising, partial curve, poor fit]
[2]
  Potency: inconclusive: 19 µM [cytotoxic, partial curve, poor fit]
[6]
  Potency: inconclusive: 0.0168 µM [inhibitor, full curve, poor fit]
[3]
  Potency: inconclusive: 26.6 µM [inhibitor]

## CC(C)(C)C1=CC(=O)C(C(C)(C)C)=CC1=O
[1]
  Potency: inconclusive: 2.39 µM [inhibitor, full curve]
[2]
  Potency: inconclusive: 10.7 µM [cytotoxic, partial curve, poor fit]
[6]
  Potency: inconclusive: 7.5 µM [inhibitor, partial curve]

## CCCCCCCCCC#N
[1]
  Potency: inconclusive: 27.4 µM [rising, full curve]
[2]
  Potency: inconclusive: 24.4 µM [cytotoxic, full curve]
[6]
  Potency: inconclusive: 38.4 µM [inhibitor, partial curve, poor fit]
[3]
  activation: inconclusive: 6.26% [phenotype inactive]

## COC(Cc1ccccc1)OC
[1]
  Potency: inconclusive: 13.8 µM [activator, full curve, poor fit]
[2]
  Potency: inconclusive: 49 µM [rising, partial curve]
[3]
  Potency: inactive

## Cc1ccccc1C(=O)Nc1ccc(C(=O)N2CCCC(O)c3cc(Cl)ccc32)c(C)c1 (stereo not drawn)
[1]
  Potency: inconclusive: 26.8 µM [inhibitor, partial curve, poor fit]
[2]
  Potency: inactive
[6]
  Potency: inconclusive: 33.5 µM [inhibitor, single point]

## CN(C)CCCN1c2ccccc2Sc2ccccc21
[1]
  activation: inconclusive: -15.4% [at 35.3 µM]
[2]
  Potency: inconclusive: 12 µM [cytotoxic, partial curve]
[6]
  Potency: inconclusive: 29.8 µM [inhibitor, partial curve, poor fit]
[9]
  Potency: inactive
[5]
  Potency: inconclusive: 26.6 µM [cytotoxic, single point]

## CN1CCC(=C2c3ccccc3Sc3ccccc32)CC1
[1]
  Potency: inconclusive: 26.8 µM [inhibitor, partial curve, poor fit]
[2]
  Potency: inconclusive: 6.01 µM [cytotoxic, partial curve, poor fit]
[6]
  Potency: inconclusive: 29.8 µM [inhibitor, single point]
